Laboratory results: patent publication US20080096903A1, “SULFAMOYL-CONTAINING DERIVATIVES AND USES THEREOF” (Wyeth, priority 2006, published 2008)
At least one compound was matched to its structure with a doubt left.

Tested on: Hsp90 (luciferase refolding, cancer cell lysate)
Assay: Luciferase Refolding Assay
Format: biochemical
Conditions: inhibition of luciferase refolding by Hsp90
Procedure: Luciferase Refolding Assay
• A. Cancer cells are cultured according to ATCC guidelines. Cell lysates are prepared as follows to be used as source of heat shock proteins: Resuspend the washed cell pellet in 3˜10 packed cell volumes of Buffer A (10 mM HEPES pH 7.9, 1.5 mM MgCl2, 10 mM KCl, 0.5 mM DTT, and 0.2 mM PMSF). Spin at 2000 rpm for 5 minutes in GS-6R (Beckman) centrifuge, 4° C. and resuspend cells in Buffer A up to a final of 3 packed cell volumes (i.e., add ˜2 volumes). Incubate on ice for 10 minutes. Transfer the cells to a Wheaton A Dounce homogenizer and lyse with 10-25 strokes. Stain an aliquot with Trypan Blue and check for >90% lysis under microscope. Spin the homogenized mixture at 3000 rpm for 20 minutes in GS-6R (Beckman) centrifuge, 4° C., to pellet nuclei. To the cytoplasmic fraction (cell lysate), add 1 mM ATP, 14.3 mM creatine phosphate, 71 μg/ml phosphokinase, 3 mM DTT, 113 mM KAc, and 0.7 mM MgAc2. […] Data analysis: Luciferase refolding activity of a cell lysate sample with or without HSP90 inhibitor is represented as the net of luminescence reading from a cell lysate sample subtracting results from negative control (no cell lysate or heat shock proteins). Inhibition effect of a compound is calculated as the percentage of refolding activity relative to samples without any inhibitors in the cell lysate. […]

SMILES: Nc1nc(F)nc2c1nc(Cc1cc3c(cc1I)OCO3)n2CCCCCCCCOS(N)(=O)=O [Example 7, Sulfamic Acid 8-[6-amino-2-fluoro-8-(6-iodo-benzo[1,3]dioxol-5-ylmethyl)-purin-9-yl]-octyl ester]
- IC50: < 5 µM
